Assay results from PubChem BioAssay AID192 (DTP/NCI, 2004).
The list shows only some results of the screen, not a fair sample: it is rich in T/C values a quarter to a half above the control, in often repeated tests (any T/C) and in doses without a T/C. Further doses and runs are listed elsewhere. T/C: endpoint of the treated group in % of that of the vehicle group. Some doses have a count of surviving animals in place of a T/C: the source files T/C as zero there, which appears to mark a toxic dose or a test without result, not a measured value. Some survivor counts are full or nearly so, which does not show that the dose was tolerated: survival well below the control is almost never listed, so the zero probably covers shortened survival too. Counts of survivors are from the toxicity check (mostly the fifth day) where no day follows; animals may have died later. Schedule codes are those of the source, taken here to give the interval after Q, in days (D) or hours (H), and the number of doses after X. Some entries were tested several times; the values are given in rising order. Additions like (4×) stand for listed records that agree. For survival time, this PubChem deposit counts one and a half times the control or more as active, and values a quarter to a half above the control carry no call in these data; other NCI protocols may use other cut-offs. Some T/C values carry the count of animals alive at the toxicity check (mostly the fifth day); without a count, all were alive then.

System: BDF1 mice, B16 melanoma ip, median survival T/C
Experiment: NCI In Vivo Anticancer Drug Screen. Data for tumor model B16 Melanoma (intraperitoneal) in B6D2F1 (BDF1) mice
Settings: T/C endpoint: median survival time, higher T/C = longer survival
Outline: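 Mice with transplantable tumors; drug vs vehicle groups; endpoint survival or tumor size; value = T/C.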

[1] = dose: 400.0 mg/kg/injection, schedule: Q01DX009 (ip), vehicle: saline
[2] = dose: 100.0 mg/kg/injection, schedule: Q01DX001 (ip), vehicle: water
[3] = dose: 200.0 mg/kg/injection, schedule: Q01DX001 (ip), vehicle: water
[4] = dose: 25.0 mg/kg/injection, schedule: Q01DX009 (ip), vehicle: Klucel (hydroxypropylcellulose) (HPC)
[5] = dose: 400.0 mg/kg/injection, schedule: Q01DX009 (ip), vehicle: saline with Tween-80
[6] = dose: 2.5 mg/kg/injection, schedule: Q01DX009 (ip), vehicle: other
[7] = dose: 5.0 mg/kg/injection, schedule: Q01DX009 (ip), vehicle: other
[8] = dose: 15.0 mg/kg/injection, schedule: Q04DX003 (ip), vehicle: lactic acid

For O=C1OC(=O)C2C3C=CC(C3=C(c3ccccc3)c3ccccc3)C12 (centres undefined), the survivor count (dose: 6.25 mg/kg/injection, schedule: Q04DX003 (ip), vehicle: carboxymethylcellulose (CMC)) was 10 of 10, the survivor count (dose: 12.5 mg/kg/injection, schedule: Q04DX003 (ip), vehicle: carboxymethylcellulose (CMC)) was 9 of 10 and the survivor count (dose: 25.0 mg/kg/injection, schedule: Q04DX003 (ip), vehicle: carboxymethylcellulose (CMC)) was 10 of 10. The survivor count (dose: 50.0 mg/kg/injection, schedule: Q04DX003 (ip), vehicle: Klucel (hydroxypropylcellulose) (HPC)) was 10 of 10, the survivor count (dose: 100.0 mg/kg/injection, schedule: Q04DX003 (ip), vehicle: Klucel (hydroxypropylcellulose) (HPC)) was 10 of 10 and the survivor count (dose: 200.0 mg/kg/injection, schedule: Q04DX003 (ip), vehicle: Klucel (hydroxypropylcellulose) (HPC)) was 7 of 10.
C[n+]1ccccc1/C=C/c1cccc([N+](=O)[O-])c1 was tested, and the survivor count (dose: 10.0 mg/kg/injection, schedule: Q04DX003 (ip), vehicle: saline with Tween-80) was 10 of 10.
With CC[C@@H](C(=O)[C@@H](C)[C@@H](O)[C@H](C)CCc1ccc(C)c(O)c1C(=O)O)[C@H]1O[C@](CC)([C@H]2CC[C@](O)(CC)[C@H](C)O2)C[C@@H]1C the survivor count (dose: 12.5 mg/kg/injection, schedule: Q01DX009 (ip), vehicle: Klucel (hydroxypropylcellulose) (HPC)) was 6 of 10.
With CN1CCCN(C(c2ccccc2)c2ccc(Br)cc2)CC1 (centres undefined) the survivor count (dose: 100.0 mg/kg/injection, schedule: Q01DX009 (ip), vehicle: saline) was 8 of 10, the survivor count (dose: 200.0 mg/kg/injection, schedule: Q01DX009 (ip), vehicle: saline) was 0 of 10 and the survivor count [1] was 0 of 10.
With COc1cccc2c1C(=O)c1c(O)c3c(c(O)c1C2=O)C[C@@](O)(C(C)=O)C[C@@H]3OC1CC(O)C(O)C(C)O1 (some centres undefined) the T/C (dose: 12.5 mg/kg/injection, schedule: Q01DX001 (ip), vehicle: water, evaluated on day 40) was 113 % of control, the T/C (dose: 12.5 mg/kg/injection, schedule: Q01DX001 (ip), vehicle: water, evaluated on day 60) was 113, 127 [9 of 10 alive], 132 % of control [9 of 10 alive] and the T/C (dose: 25.0 mg/kg/injection, schedule: Q01DX001 (ip), vehicle: water, evaluated on day 40) was 126 % of control. The T/C (dose: 25.0 mg/kg/injection, schedule: Q01DX001 (ip), vehicle: water, evaluated on day 60) was 139, 140, 147 % of control, the T/C (dose: 50.0 mg/kg/injection, schedule: Q01DX001 (ip), vehicle: water, evaluated on day 40) was 146 % of control and the T/C (dose: 50.0 mg/kg/injection, schedule: Q01DX001 (ip), vehicle: water, evaluated on day 60) was 140, 143, 153 % of control. For the same molecule, the T/C [2] was 137, 152 [9 of 10 alive], 179 % of control [8 of 10 alive], the survivor count [2] was 6 of 10 and the T/C [3] was 119 % of control. The survivor count [3] was 2 of 10, 4 of 10, 5 of 10.
For C[C@H]1CN1C1=CC(=O)C(N2C[C@@H]2C)=CC1=O, the T/C (dose: 2.0 mg/kg/injection, schedule: Q01DX009 (ip), vehicle: saline with Tween-80) was 125 % of control, the T/C (dose: 4.0 mg/kg/injection, schedule: Q01DX009 (ip), vehicle: saline with Tween-80) was 144 % of control and the survivor count (dose: 8.0 mg/kg/injection, schedule: Q01DX009 (ip), vehicle: Klucel (hydroxypropylcellulose) (HPC)) was 10 of 10. The survivor count (dose: 8.0 mg/kg/injection, schedule: Q01DX009 (ip), vehicle: saline with Tween-80) was 6 of 6 and the survivor count (dose: 16.0 mg/kg/injection, schedule: Q01DX009 (ip), vehicle: Klucel (hydroxypropylcellulose) (HPC)) was 5 of 10.
For COc1ccc2c(c1)c(C#N)cc[n+]2C, the survivor count (dose: 12.5 mg/kg/injection, schedule: Q01DX009 (ip), vehicle: saline) was 10 of 10.
With CN(C)C1CCCCC1 the survivor count [4] was 8 of 10.
For CNC(=S)N/N=C/CCC/C=N/NC(=S)NC, the survivor count (dose: 62.5 mg/kg/injection, schedule: Q01DX009 (ip), vehicle: saline with Tween-80) was 6 of 6 and the survivor count (dose: 125.0 mg/kg/injection, schedule: Q01DX009 (ip), vehicle: saline with Tween-80) was 6 of 6.
For COc1ccc(NC(=S)Nc2ccccn2)cc1, the survivor count [5] was 6 of 6.
For C[C@H]1[C@H](O)[C@H]2[C@@H](CCC3=CC(=O)CC[C@@]32C)[C@@H]2CC[C@H](O)[C@@]12C, the survivor count [5] was 6 of 6.
For O=C([O-])C[n+]1ccccc1, the survivor count [1] was 8 of 10.
CN(C)/N=N/c1[nH]ncc1C(N)=O was tested, and the survivor count (dose: 100.0 mg/kg/injection, schedule: Q01DX009 (ip), vehicle: carboxymethylcellulose (CMC)) was 3 of 6, the survivor count (dose: 200.0 mg/kg/injection, schedule: Q01DX009 (ip), vehicle: carboxymethylcellulose (CMC)) was 6 of 6 and the survivor count (dose: 400.0 mg/kg/injection, schedule: Q01DX009 (ip), vehicle: carboxymethylcellulose (CMC)) was 5 of 6.
In the case of COC1C(C)OC(OC2CC(C)(O)Cc3cc4c(c(O)c32)C(=O)c2c(O)cc3c(c2C4=O)OC2OC3(C)C(O)C(N(C)C)C2O)C(OC)C1(C)OC (centres undefined), the survivor count (dose: 0.04 mg/kg/injection, schedule: Q01DX009 (ip), vehicle: other) was 4 of 10, the survivor count (dose: 0.08 mg/kg/injection, schedule: Q01DX009 (ip), vehicle: other) was 4 of 10 and the survivor count (dose: 0.15 mg/kg/injection, schedule: Q01DX009 (ip), vehicle: other) was 3 of 10. The survivor count (dose: 0.16 mg/kg/injection, schedule: Q01DX009 (ip), vehicle: other) was 7 of 10 and 10 of 10, the survivor count (dose: 0.3 mg/kg/injection, schedule: Q01DX009 (ip), vehicle: other) was 5 of 10 and the T/C (dose: 0.31 mg/kg/injection, schedule: Q01DX009 (ip), vehicle: other, evaluated on day 45) was 145 % of control. The T/C (dose: 0.31 mg/kg/injection, schedule: Q01DX009 (ip), vehicle: other, evaluated on day 60) was 211 % of control, the survivor count (dose: 0.31 mg/kg/injection, schedule: Q01DX009 (ip), vehicle: other) was 7 of 10 and 10 of 10 and the survivor count (dose: 0.6 mg/kg/injection, schedule: Q01DX009 (ip), vehicle: other) was 3 of 10. For the same molecule, the T/C (dose: 0.62 mg/kg/injection, schedule: Q01DX009 (ip), vehicle: other) was 96, 107 [7 of 10 alive], 117, 161, 189 % of control, the survivor count (dose: 0.63 mg/kg/injection, schedule: Q01DX009 (ip), vehicle: other) was 10 of 10 and the T/C (dose: 1.25 mg/kg/injection, schedule: Q01DX009 (ip), vehicle: other, evaluated on day 45) was 164 % of control. For the same molecule, the T/C (dose: 1.25 mg/kg/injection, schedule: Q01DX009 (ip), vehicle: other, evaluated on day 60) was 112, 132 [8 of 10 alive], 144, 186 [9 of 10 alive], 217 % of control, the survivor count (dose: 1.25 mg/kg/injection, schedule: Q01DX009 (ip), vehicle: other) was 0 of 10 and the T/C [6] was 101 and 228 % of control. The survivor count [6] was 3 of 10, 6 of 10, 7 of 10 (2×), the T/C [7] was 117, 203 [9 of 10 alive], 218 % of control and the survivor count [7] was 3 of 10. For the same molecule, the T/C (dose: 5.4 mg/kg/injection, schedule: Q04DX003 (ip), vehicle: lactic acid) was 136 % of control, the T/C (dose: 9.0 mg/kg/injection, schedule: Q04DX003 (ip), vehicle: lactic acid) was 135 % of control and the survivor count (dose: 10.0 mg/kg/injection, schedule: Q01DX009 (ip), vehicle: other) was 0 of 10, 4 of 10, 8 of 10, 9 of 10. The T/C [8] was 131 % of control and the survivor count [8] was 9 of 10.
O=C(Nc1ccc(F)cc1)Nc1ccc(Cl)cc1 was tested, and the survivor count [5] was 9 of 10.
In the case of COc1ccc2[nH]c3c(C)c4cc[n+](C)c(C)c4cc3c2c1, the survivor count (dose: 160.0 mg/kg/injection, schedule: Q04DX003 (ip), vehicle: water) was 4 of 10.
With CC(C)=CCC/C(C)=C/CNCCc1c[nH]c2ccccc12 the survivor count [4] was 9 of 10, the survivor count (dose: 50.0 mg/kg/injection, schedule: Q01DX009 (ip), vehicle: Klucel (hydroxypropylcellulose) (HPC)) was 9 of 10 and the survivor count (dose: 100.0 mg/kg/injection, schedule: Q01DX009 (ip), vehicle: Klucel (hydroxypropylcellulose) (HPC)) was 2 of 10.
